Values of other authors, collected in patent publication US20010056101A1 (priority 1998, published 2001).
At least one structure is not confirmed: it was looked up by name or label, or the drawing left a doubt.

Set-up: key to the marks not given beside the values
Conditions: grade symbols, key not given; cited from earlier work

## CC(C)C[C@H]1C(=O)N2CCC[C@H]2[C@]2(O)O[C@](NC(=O)[C@@H]3C=C4c5cccc6[nH]c(Br)c(c56)C[C@H]4N(C)C3)(C(C)C)C(=O)N12 [Bromocriptine, bromocriptine]
  Contraversive Turning: ++
